Assay results: publication PMC12116889
These are yes or no findings as the source states them, for the method shown. Binding seen in cells or lysates may run through a third protein. Sequences can lack the tags named with a protein.

Target: T1, Tom71-HA (S. cerevisiae) (UniProt P38825)
T1 sequence: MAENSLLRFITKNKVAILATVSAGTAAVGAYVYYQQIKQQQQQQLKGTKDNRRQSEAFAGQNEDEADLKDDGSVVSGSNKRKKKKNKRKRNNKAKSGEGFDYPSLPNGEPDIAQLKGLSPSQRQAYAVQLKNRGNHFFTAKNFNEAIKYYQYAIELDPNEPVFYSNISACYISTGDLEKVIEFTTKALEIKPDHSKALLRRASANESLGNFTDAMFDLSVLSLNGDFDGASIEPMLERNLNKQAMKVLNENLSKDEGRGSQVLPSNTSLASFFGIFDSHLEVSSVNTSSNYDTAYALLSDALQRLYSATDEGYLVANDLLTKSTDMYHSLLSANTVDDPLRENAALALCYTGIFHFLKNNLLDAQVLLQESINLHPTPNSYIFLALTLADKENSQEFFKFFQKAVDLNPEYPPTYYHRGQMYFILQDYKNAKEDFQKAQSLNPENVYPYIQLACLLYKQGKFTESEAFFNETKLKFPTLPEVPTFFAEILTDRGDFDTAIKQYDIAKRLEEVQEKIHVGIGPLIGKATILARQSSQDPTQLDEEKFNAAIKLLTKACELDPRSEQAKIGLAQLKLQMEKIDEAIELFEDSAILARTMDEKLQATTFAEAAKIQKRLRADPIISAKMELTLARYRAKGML
Assay: co-IP; tom70Δ yeast cells expressing Flag-Pex19 alone or with Tom71-HA; whole cell lysate solubilised with 1% Triton X-100, incubated with anti-HA magnetic beads 2 h at 4 °C; wash with TBS, 0.5% Triton X-100, 5 mM EDTA, 350 mM NaCl; immunoblot of input, unbound and eluate

B1: Flag-Pex19 (protein, UniProt Q07418 1-342)
chain: MNENEYDNFDDLDDLLDEDPTKLDEAEPDDVQAKGSVYNDSENKEKNAESKDSDGVQVANESEEDPELKEMMVDLQNEFANLMKNNGNENNVKTEDFNKLISALEEAAKVPHQQMEQGCSSLKSNSTDKGTVNGSNPGFKNIVSNTLDRLKENGNKVDTSLAEETKESQRSGQNNNIDDILSQLLDQMVASGGKESAENQFDLKDGEMDDAITKILDQMTSKEVLYEPMKEMRSEFGVWFQENGENEEHKEKIGTYKRQFNIVDEIVNIYELKDYDELKHKDRVTELLDELEQLGDSPIRSANSPLKHGNEEEELMKMLEIDGNDPNLGNLDKELTDGCKQQ
binding: no binding
